From PMC10899662, “TopBP1 utilises a bipartite GINS binding mode to support genome replication” (Nature Communications, 2024)
These are yes or no findings as the source states them, for the method shown. Binding seen in cells or lysates may run through a third protein. Here binding means that the protein was enriched with, or labelled near, the bait; the list need not be complete.

Protein sequences, listed by entry. Tags and fused reporters are not part of them.
UniProt Q92547: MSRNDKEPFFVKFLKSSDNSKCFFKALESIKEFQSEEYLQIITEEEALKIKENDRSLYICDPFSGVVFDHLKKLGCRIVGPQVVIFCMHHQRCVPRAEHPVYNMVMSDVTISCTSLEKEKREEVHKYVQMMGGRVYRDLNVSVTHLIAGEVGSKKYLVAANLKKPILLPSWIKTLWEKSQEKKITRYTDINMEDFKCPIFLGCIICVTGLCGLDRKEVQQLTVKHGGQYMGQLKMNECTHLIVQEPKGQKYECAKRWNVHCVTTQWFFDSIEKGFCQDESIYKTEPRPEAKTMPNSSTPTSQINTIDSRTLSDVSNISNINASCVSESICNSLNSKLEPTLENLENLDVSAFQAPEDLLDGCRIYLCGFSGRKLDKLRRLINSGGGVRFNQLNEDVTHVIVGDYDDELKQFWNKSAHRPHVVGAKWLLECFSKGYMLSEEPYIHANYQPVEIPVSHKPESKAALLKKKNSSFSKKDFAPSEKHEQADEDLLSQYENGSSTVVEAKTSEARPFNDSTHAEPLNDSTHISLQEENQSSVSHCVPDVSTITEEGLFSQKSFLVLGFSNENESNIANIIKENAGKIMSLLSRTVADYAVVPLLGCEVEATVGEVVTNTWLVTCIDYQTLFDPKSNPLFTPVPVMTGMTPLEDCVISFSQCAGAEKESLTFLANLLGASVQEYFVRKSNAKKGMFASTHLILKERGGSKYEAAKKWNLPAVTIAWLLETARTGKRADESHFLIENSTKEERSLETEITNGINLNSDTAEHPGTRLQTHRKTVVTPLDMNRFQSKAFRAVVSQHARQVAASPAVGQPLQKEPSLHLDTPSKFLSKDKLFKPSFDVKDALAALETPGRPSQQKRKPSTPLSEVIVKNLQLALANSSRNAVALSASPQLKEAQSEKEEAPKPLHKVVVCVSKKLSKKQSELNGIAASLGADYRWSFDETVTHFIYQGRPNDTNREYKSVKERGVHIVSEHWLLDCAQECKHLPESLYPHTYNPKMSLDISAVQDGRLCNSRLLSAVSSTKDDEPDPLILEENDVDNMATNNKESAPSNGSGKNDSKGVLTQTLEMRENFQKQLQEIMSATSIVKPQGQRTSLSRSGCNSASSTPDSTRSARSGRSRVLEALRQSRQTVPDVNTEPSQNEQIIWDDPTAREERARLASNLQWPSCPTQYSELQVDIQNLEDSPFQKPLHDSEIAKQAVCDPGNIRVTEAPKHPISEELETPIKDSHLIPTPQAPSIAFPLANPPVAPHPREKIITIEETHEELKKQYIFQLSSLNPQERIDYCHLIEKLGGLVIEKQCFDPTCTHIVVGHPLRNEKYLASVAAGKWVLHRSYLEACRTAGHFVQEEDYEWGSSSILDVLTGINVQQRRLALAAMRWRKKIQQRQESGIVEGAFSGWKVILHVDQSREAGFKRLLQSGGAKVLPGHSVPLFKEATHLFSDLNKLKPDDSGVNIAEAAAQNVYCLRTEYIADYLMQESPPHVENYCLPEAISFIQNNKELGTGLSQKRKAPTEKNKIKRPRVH

B1: Psf3 (endogenous) (protein, UniProt Q9BRX5 1-216)
chain: MSEAYFRVESGALGPEENFLSLDDILMSHEKLPVRTETAMPRLGAFFLERSAGAETDNAVPQGSKLELPLWLAKGLFDNKRRILSVELPKIYQEGWRTVFSADPNVVDLHKMGPHFYGFGSQLLHFDSPENADISQSLLQTFIGRFRRIMDSSQNAYNEDTSALVARLDEMERGLFQTGQKGLNDFQCWEKGQASQITASNLVQNYKKRKFTDMED
B2: Psf2 (endogenous) (protein, UniProt Q9Y248 1-185)
chain: MDAAEVEFLAEKELVTIIPNFSLDKIYLIGGDLGPFNPGLPVEVPLWLAINLKQRQKCRLLPPEWMDVEKLEKMRDHERKEETFTPMPSPYYMELTKLLLNHASDNIPKADEIRTLVKDMWDTRIAKLRVSADSFVRQQEAHAKLDNLTLMEINTSGTFLTQALNHMYKLRTNLQPLESTQSQDF

Biological target: APEX2-tagged TopBP1 (human) (UniProt Q92547)
Assay: proximity labelling; APEX2-tagged TopBP1 in 293 Flip-In or 293T cells, biotin phenol and H2O2, streptavidin pulldown and mass spectrometry; three experiments

| Binder | binding |
| --- | --- |
| B1 | binds |
| B2 | binds |
